Results reported in PubChem BioAssay AID504834 (National Center for Advancing Translational Sciences (NCATS), 2011).
In all, about 320,000 compounds went through this assay and about 22,000 (6.9%) were called active. This list was built around the results that the source calls inconclusive (neither active nor inactive); the mix of calls is not that of the screen. Calls follow the shape of the dose curve; as a rule, active = well fitted inhibition curve with a large enough effect; inconclusive = small, poorly fitted or top-dose-only effect, or another doubt; inactive = no such curve, though single readings can be large or run the other way. Potencies of inconclusive entries are doubtful fits and often do not repeat.

Experiment: Primary qHTS for delayed death inhibitors of the malarial parasite plastid, 96 hour incubation
Settings: P. falciparum luciferase reporter growth; series mostly up to 28.7 µM
Summary of the method: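 Luminescence readout: decreased luciferase signal marks inhibited growth of reporter-expressing P. falciparum in infected red cells (2% hematocrit, 0.05% parasitemia final), exposed to compound two generations (96 h, 37 C, 5% CO2).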
Potency is read from the fitted curve at half-maximal effect.

SMILES	Potency
Cc1nc(C(=O)NCCC(C)C)sc1C1(C)CC(c2cccc([N+](=O)[O-])c2)=NO1 (stereo not given)	inconclusive: 0.0029 µM [inhibitor, full curve, poor fit]
O=C(O)CSC(=S)N1CCCC1	inactive
CC1(C)CC(NC(=O)Cc2ccccc2)CC(C)(C)N1	inconclusive: 20.8 µM [inhibitor, single point]
Cc1ccc(C2CC(=O)C=C(Nc3ccc(Cl)cc3)C2)cc1 (stereo not given)	inactive
Cc1onc(-c2ccccc2)c1C(=O)N1CCN(S(=O)(=O)c2ccc(OC(F)(F)F)cc2)CC1	inconclusive: 0.0029 µM [inhibitor, full curve, poor fit]
CCn1c(SCC(=O)Nc2cccc(NC(C)=O)c2)nnc1-c1ccco1	inconclusive: 10.4 µM [inhibitor, single point]
CCN(CC)c1ccc(C(=O)NNC(=O)CCNC(=O)c2ccccc2)cc1	inconclusive: 18.5 µM [inhibitor, single point]
C/C(N)=C(/C#N)C(=O)CSc1nnc(-c2ccccc2)n1C	inactive
Cc1nnsc1SCCNC(=O)c1c(F)cccc1F	inactive
O=C(Cn1c2ccc(F)cc2c2nc3n(c(=O)c21)CCS3)NCC1CCCO1 (stereo not given)	inactive
CCOC(=O)N1CCN(C(=O)c2ccccc2NS(=O)(=O)c2ccc(C)cc2)CC1	inconclusive: 18.5 µM [inhibitor, single point]
COc1ccc(Cc2nn3c(-c4cc(OC)c(OC)c(OC)c4)nnc3s2)cc1	inactive
O=C(COc1ccc(/C=N/NC(=O)c2cc3ccccc3o2)cc1Br)Nc1ccccc1	inconclusive: 1.85 µM [inhibitor, partial curve, poor fit]
CC1(c2ccc(OC(F)F)cc2)NC(=O)N(CC(=O)Nc2ccc(N3CCCCC3)cc2)C1=O (stereo not given)	inactive
O=C(NCc1ccccc1C(F)(F)F)C1CC(c2ccc(C(F)(F)F)cc2)=NO1 (stereo not given)	inactive
O=c1oc2ccccc2c(NC2CCCCC2)c1NS(=O)(=O)c1ccc(Cl)cc1	inconclusive: 18.5 µM [inhibitor, single point]
Cc1ccc(Cl)cc1-n1c(SCC(=O)NCCC2=CCCCC2)nc2n[nH]c(C)c2c1=N	inconclusive: 4.15 µM [inhibitor, full curve]
Cc1ccc(NC(=O)C2C(c3ccccc3)C=CC(c3ccccc3)C2C(=O)O)cc1 (stereo not given)	inconclusive: 18.5 µM [inhibitor, partial curve, poor fit]
O=C(OCc1c(Cl)cccc1Cl)c1ccccn1	inactive
O=C(NCCOc1ccc(Cl)cc1)C1CCCCC1	inactive
CCCNS(=O)(=O)c1cc(CN2C(=O)c3cccnc3C2=O)ccc1OC	inconclusive: 13.1 µM [inhibitor, single point]
OCC1(Cc2ccccc2C(F)(F)F)CCN(Cc2ccncc2)CC1	inconclusive: 8.28 µM [inhibitor, partial curve, poor fit]
CN(CCCC(=O)O)S(=O)(=O)c1ccc2c(c1)C(=O)c1cc(S(=O)(=O)N(C)CCCC(=O)O)ccc1-2	inactive
O=S(=O)(NCC(Nc1ccc(Cl)cc1)c1ccccc1)c1ccc(Cl)cc1 (stereo not given)	inconclusive: 13.1 µM [inhibitor, single point]

SMILES	Potency
CCN1C(=NCC(C)C)N[C@@H](c2cccc(C(F)(F)F)c2)C(C(=O)OC)=C1C	active: 0.928 µM
CCN(CC)C(=O)Cn1nc(-c2ccncc2)nc1SCC(=O)Nc1ccc(OC)cc1	inconclusive: 18.5 µM [inhibitor, single point]
Cc1nn(C)c(C)c1CCC(=O)N1CCCC(N2CCN(c3ccc(F)cc3)CC2)C1 (stereo not given)	inactive
COC(=O)c1ccccc1C(=O)N1CCOCCOCCOCC1	inconclusive: 1.47 µM [inhibitor, partial curve]
COc1ccccc1CNC(=O)[C@@H](NC(=O)C1CCN(C(=O)[C@@H]2CCCN2C(=O)OC(C)(C)C)CC1)C(C)C	inconclusive: 18.5 µM [inhibitor, single point]
CCc1sc(N(C(=O)Cc2ccccc2)c2cccc(F)c2)nc1-c1ccc(C)cc1	inconclusive: 18.5 µM [inhibitor, single point]
CCOc1ccc(NC(=O)c2nn(C)cc2Br)cc1	inconclusive: 10.4 µM [inhibitor, single point]
Cn1c(=O)c2c(nc(NCc3ccccc3)n2Cc2ccc(F)cc2)n(C)c1=O	active: 14.7 µM
Cc1ccc(CSc2nn3c(=O)c(C)nnc3s2)cc1	inconclusive: 0.0522 µM [inhibitor, full curve, poor fit]
Cc1ccc(NS(=O)(=O)c2ccc(Cl)c(C(=O)Nc3cccc(C(=O)O)c3)c2)cc1	inconclusive: 14.7 µM [inhibitor, single point]
Cc1ccc(/C=N/c2sc(Cc3ccccc3)c(C)c2C(N)=O)o1	inconclusive: 0.522 µM [inhibitor, partial curve, poor fit]
O=C(CN1CCC(NC(=O)c2ccco2)CC1)Nc1ccccc1[N+](=O)[O-]	inconclusive: 18.5 µM [inhibitor, single point]
Clc1ccc(CSc2snnc2-c2ccccc2)c(Cl)c1	inconclusive: 0.0033 µM [inhibitor, full curve, poor fit]
Cc1cccc(C)c1N1CCN(c2nc(N(C)C)oc(=O)c2C#N)CC1	inactive
COCCNC(=O)CSc1nc(-c2ccccc2)cs1	inactive
COc1ccc(C(=O)Nc2ccc(C(=O)Nc3cccnc3)cc2)cc1	inactive
CCN1CCN(Cc2ccc(NC(=O)c3cc(NC(=O)c4ccno4)cc(OC)c3)cc2C(F)(F)F)CC1	active: 0.828 µM
COc1ccc(/C=C/c2ccncc2)cc1OC	inconclusive: 0.0041 µM [inhibitor, full curve, poor fit]
O=C(Cn1c(=O)n(CCCC(=O)NC2CCCC2)c(=O)c2ccccc21)NCCC1=CCCCC1	inconclusive: 9.28 µM [inhibitor, partial curve, poor fit]
O=C(CSc1nnc(COc2ccc(Cl)cc2)n1Cc1ccco1)N1CCNC1=O	inconclusive: 9.28 µM [inhibitor, partial curve]
Cc1ccc(C(=O)Nc2ccc(C(=O)NCC3CCCO3)cc2)cc1 (stereo not given)	inconclusive: 18.5 µM [inhibitor, single point]
CN1/C(=C\C(=O)Nc2cccnc2)c2ccccc2CC1(C)C	active: 5.86 µM
COc1ccc(CNC(=O)CCOc2ccc(C(C)(C)C)cc2)cc1	inactive
Cc1nn(CCC(N)=S)c2nc(-c3cccs3)cc(C(F)(F)F)c12	inconclusive: 18.5 µM [inhibitor, single point]

An excerpt of these results, as a markdown table.

| SMILES | Potency |
| --- | --- |
| Clc1ccc(CSc2snnc2-c2ccccc2)c(Cl)c1 | inconclusive: 0.0033 µM [inhibitor, full curve, poor fit] |
| Cc1cccc(C)c1N1CCN(c2nc(N(C)C)oc(=O)c2C#N)CC1 | inactive |
| COCCNC(=O)CSc1nc(-c2ccccc2)cs1 | inactive |

Remaining list, next part:

SMILES	Potency
COc1ccc(N(C)S(=O)(=O)c2cccc(C(=O)N3CCN(Cc4ccc5c(c4)OCO5)CC3)c2)cc1	active: 13.1 µM
O=C(NC1CC1)C1CCN(C(=O)c2ccccc2Cl)CC1	inactive
COc1ccc(CNC(=O)C(=O)NCC2OCCN2S(=O)(=O)c2ccc(OC)c(OC)c2)cc1 (stereo not given)	inconclusive: 18.5 µM [inhibitor, single point]
Fc1ccc(N2CCN(c3nc(-c4ccco4)cc(C(F)(F)F)n3)CC2)cc1	inactive
Cc1csc(NC(=O)c2cccnc2)n1	inactive
O=C(NC(=S)Nc1ccc(N2CCOCC2)cc1)c1ccc2c(c1)OCCO2	inactive
Cc1cc(C(=O)CCC(=O)Nc2ncccc2C)c(C)s1	inconclusive: 14.7 µM [inhibitor, single point]
CSc1ccccc1NC(=O)CN(C)CC(=O)Nc1ccc(N2CCOCC2)cc1	inconclusive: 16.5 µM [inhibitor, single point]
Cc1onc(-c2c(Cl)cccc2Cl)c1/C(N)=N/OC(=O)N(C)C	inconclusive: 13.1 µM [inhibitor, partial curve, poor fit]
COc1ccccc1C(=O)Nc1ccnn1C1CCN(C(=O)C(C)(C)C)CC1	inactive
O=C(NCCc1ccccc1)c1cc(-c2ccco2)on1	inactive
CN(C)S(=O)(=O)c1cccc(NC(=O)CSc2nc3c(cc2C#N)C(=O)CC(C)(C)C3)c1	inconclusive: 5.86 µM [inhibitor, partial curve, poor fit]
O=C(O)C(NS(=O)(=O)c1ccccc1)C(O)c1ccccc1 (stereo not given)	inconclusive: 9.28 µM [inhibitor, single point]
CCC[N+](CC#Cc1ccccc1)(CCC)CC(=O)OC	inconclusive: 10.4 µM [inhibitor, partial curve, poor fit]
Cc1c(NC(=O)c2ccccc2NS(=O)(=O)c2ccc(Br)cc2)c(=O)n(-c2ccccc2)n1C	inactive
CCCCCCCn1c(C)nnc1-c1cnn(C)c1N	inactive
C=CCOC(=O)C1=C(C)NC(SCC(N)=O)=C(C#N)C1c1ccc(C)cc1 (stereo not given)	inconclusive: 7.38 µM [inhibitor, partial curve, poor fit]
C=CCSc1nnc(C)c(/C=C/Nc2ccc(Cl)cc2)n1	inconclusive: 1.31 µM [inhibitor, single point]
Cn1c(C(=O)NCC2CCCO2)cc2c(=O)n(C)c3ccccc3c21 (stereo not given)	inconclusive: 13.1 µM [inhibitor, single point]
Cc1ccc(S(=O)(=O)NCc2ccccc2)cc1C(=O)N1CC(C)CC(C)C1 (stereo not given)	inconclusive: 11.7 µM [inhibitor, single point]
COc1cc(/C=N/Nc2nc(Nc3ccccc3)nc(N3CCCCC3)n2)ccc1OCC(=O)O	inconclusive: 13.1 µM [inhibitor, partial curve, poor fit]
O=C1C=C(c2ccc3cc[nH]c3c2)C[C@@H](c2ccc3c(c2)OCO3)C1	inconclusive: 0.0029 µM [inhibitor, full curve, poor fit]
